Results on seven substances are retold here after paper PMC11582751.

Amino acid sequences for entries named in this document (tags omitted).
UniProt Q9H8S9: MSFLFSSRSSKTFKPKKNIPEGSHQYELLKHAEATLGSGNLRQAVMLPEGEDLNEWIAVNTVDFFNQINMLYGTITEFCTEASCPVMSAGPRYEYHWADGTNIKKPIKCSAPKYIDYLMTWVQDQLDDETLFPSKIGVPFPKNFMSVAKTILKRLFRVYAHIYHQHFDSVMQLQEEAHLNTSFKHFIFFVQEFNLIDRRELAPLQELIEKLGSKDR
UniProt Q15208: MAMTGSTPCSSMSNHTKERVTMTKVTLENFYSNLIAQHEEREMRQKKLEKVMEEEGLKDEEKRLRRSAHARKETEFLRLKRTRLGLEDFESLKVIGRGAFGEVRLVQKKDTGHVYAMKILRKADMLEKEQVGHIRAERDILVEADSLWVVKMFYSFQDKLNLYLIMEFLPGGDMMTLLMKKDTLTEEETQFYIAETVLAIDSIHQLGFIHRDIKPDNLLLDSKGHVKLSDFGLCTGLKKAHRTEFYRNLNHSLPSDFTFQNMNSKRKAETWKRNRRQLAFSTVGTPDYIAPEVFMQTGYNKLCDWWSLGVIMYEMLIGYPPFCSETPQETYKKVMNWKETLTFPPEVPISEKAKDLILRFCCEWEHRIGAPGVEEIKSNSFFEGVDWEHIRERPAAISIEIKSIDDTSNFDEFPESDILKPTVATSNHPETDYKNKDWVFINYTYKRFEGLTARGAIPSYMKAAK
UniProt Q9Y2H1: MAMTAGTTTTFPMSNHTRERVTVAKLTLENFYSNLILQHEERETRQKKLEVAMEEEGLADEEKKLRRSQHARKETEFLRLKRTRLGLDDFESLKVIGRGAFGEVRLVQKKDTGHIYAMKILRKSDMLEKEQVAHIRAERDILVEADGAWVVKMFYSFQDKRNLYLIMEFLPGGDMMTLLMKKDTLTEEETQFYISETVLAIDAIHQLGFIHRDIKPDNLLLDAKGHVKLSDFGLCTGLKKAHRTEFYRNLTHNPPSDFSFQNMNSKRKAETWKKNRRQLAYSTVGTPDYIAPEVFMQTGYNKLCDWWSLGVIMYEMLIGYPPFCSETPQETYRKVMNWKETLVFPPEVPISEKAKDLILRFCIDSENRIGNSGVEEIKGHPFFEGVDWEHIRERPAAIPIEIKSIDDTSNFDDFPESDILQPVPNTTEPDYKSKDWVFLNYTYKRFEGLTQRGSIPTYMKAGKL

Positions count from the first letter of the chain named. No constants are given. Whether binding was seen depends on the method and setting. In cells and extracts the contact can be indirect. Some entries that bind do so weakly or less than the wild type. For part of these data: Where a sequence is shown, tags or fusion partners need not be part of it.

Experiment [1] deals with T1, SFB-tagged LATS1 (human) (UniProt O95835).
T1 sequence: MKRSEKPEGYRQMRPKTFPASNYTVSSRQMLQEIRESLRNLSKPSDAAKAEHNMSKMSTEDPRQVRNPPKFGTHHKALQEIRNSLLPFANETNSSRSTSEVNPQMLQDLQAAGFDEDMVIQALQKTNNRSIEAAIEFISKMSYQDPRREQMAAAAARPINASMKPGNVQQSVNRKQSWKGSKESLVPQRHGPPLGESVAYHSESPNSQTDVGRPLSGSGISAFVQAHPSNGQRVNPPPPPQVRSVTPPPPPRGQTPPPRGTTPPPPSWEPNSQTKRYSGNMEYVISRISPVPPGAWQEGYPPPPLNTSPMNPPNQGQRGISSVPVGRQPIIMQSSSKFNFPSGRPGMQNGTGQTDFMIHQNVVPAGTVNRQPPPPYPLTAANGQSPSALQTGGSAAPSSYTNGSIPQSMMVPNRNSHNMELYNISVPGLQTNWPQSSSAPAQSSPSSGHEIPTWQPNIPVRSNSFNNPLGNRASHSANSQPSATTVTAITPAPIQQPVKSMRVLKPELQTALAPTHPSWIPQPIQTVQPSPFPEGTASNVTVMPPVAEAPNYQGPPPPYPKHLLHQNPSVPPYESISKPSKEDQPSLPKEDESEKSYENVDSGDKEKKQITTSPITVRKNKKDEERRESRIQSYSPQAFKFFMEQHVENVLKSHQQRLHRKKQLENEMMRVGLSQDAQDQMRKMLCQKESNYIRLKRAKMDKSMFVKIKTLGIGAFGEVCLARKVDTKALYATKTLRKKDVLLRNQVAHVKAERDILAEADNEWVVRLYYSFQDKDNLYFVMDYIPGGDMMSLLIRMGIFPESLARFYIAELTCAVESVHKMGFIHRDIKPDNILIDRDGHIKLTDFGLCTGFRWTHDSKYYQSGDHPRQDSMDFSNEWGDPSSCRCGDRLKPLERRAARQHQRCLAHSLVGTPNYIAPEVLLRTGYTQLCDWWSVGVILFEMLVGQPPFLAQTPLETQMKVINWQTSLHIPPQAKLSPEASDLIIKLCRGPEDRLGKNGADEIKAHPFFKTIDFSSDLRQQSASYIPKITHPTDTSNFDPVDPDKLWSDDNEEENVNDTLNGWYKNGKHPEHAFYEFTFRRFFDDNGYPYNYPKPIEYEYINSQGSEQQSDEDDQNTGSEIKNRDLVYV
In words: pull-down; HEK293T cells transfected with HA-NF2 constructs and SFB-tagged LATS1, AMOT or VANGL1; pulldown assay.

Experiment [2] concerns the target T2, SFB-VANGL1 (human) (UniProt Q8TAA9).
T2 sequence: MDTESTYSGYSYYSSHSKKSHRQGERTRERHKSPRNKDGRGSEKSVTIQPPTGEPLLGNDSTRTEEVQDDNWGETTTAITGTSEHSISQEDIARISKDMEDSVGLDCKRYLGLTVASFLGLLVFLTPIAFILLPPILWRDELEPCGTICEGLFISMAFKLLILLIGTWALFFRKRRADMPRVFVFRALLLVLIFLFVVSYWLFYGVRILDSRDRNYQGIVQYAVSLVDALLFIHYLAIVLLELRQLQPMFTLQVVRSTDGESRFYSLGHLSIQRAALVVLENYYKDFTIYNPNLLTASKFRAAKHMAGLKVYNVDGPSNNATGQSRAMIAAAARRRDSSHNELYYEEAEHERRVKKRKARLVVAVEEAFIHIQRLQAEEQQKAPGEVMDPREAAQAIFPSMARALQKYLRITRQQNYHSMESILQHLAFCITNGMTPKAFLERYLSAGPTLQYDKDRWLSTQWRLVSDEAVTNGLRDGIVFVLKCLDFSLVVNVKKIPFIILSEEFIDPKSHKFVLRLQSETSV
The experiment is described as above.

Experiment [3] addresses T3, SFB-tagged MOB1B (human) (UniProt Q7L9L4).
T3 sequence: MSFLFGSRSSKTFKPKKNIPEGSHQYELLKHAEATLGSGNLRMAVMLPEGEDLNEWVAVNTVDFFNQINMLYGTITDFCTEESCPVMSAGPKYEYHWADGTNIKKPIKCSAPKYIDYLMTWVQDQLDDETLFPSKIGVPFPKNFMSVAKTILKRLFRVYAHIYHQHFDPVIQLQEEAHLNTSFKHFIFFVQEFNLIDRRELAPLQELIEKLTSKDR
In words: pull-down; MOB1A/B and their H161 mutants with STK38 or STK38L (Supplementary Fig. 12c-f; legends not shown).

In experiment [4] the target is T4, SFB-tagged MOB1A (human) (UniProt Q9H8S9).
T4 sequence: T3 sequence with G6S, M43Q, V57I, D77E, E82A, K92R, P169S, I171M, T212G
The description is as above.

Take HA-NF2 (from UniProt P35240 1-595): the binding result in experiment [1] is “binds”.
On to “HA-NF2 A211D (from UniProt P35240 1-595)”, for which the binding entry in experiment [2] is “binds”.
Consider HA-NF2 L46R (from UniProt P35240 1-595), for which the binding result in experiment [2] is on record as “binds”.
As for “HA-NF2 L141R (from UniProt P35240 1-595)”, the binding result in experiment [2] is “binds”.
For the substance “HA-NF2 L208P (from UniProt P35240 1-595)”, the binding entry in experiment [2] is reported as “binds”.
With STK38 (from UniProt Q15208 1-465), the binding entry in experiment [3] and in experiment [4] was “binds” each time.
With STK38L (from UniProt Q9Y2H1 1-464), the binding result in experiment [3] and in experiment [4] was “binds” each time.
